Measurements reported in PubChem BioAssay AID504804 (Drosophila RNAi Screening Center, 2011)
The deposit covers about 19,000 reagents; shown is an unselected part of those with a known target gene and a result. In the full data, 47 (0.25%) got an active call. 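Signals are raw, not normalised; exact z-scores behind calls not deposited; actives needed confirmation, so some wells reaching 2 SD are inactive.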 A number with no mark means an inactive call. Names joined by + are all predicted targets of the reagent.

Purpose: 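Knock-downs shielding fly cells from apoptosis caused by DNA damage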 (primary screen)
Cells: Drosophila Kc cells
Reagent: long dsRNA against Drosophila genes, 0.5 µg dsRNA per well
Timing: 96 h (48 h knock-down, then 48 h drug)
Challenge: doxorubicin 5 µg/ml for 48 h, added 48 h after dsRNA
Detection: 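Luminescent ATP counts per replicate, not normalised, reflecting viable cells after 48 h dsRNA knock-down followed by 48 h of 5 µg/ml doxorubicin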
Direction: raw ATP luminescence: higher = more viable cells, protection from doxorubicin
Rule for the call: 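z-score of 2 or more over plate mean in both duplicates, retained only when retests and separate dsRNAs confirm the protection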

target gene	PubChem SID	SD above plate mean	raw ATP luminescence, replicate 1	raw ATP luminescence, replicate 2
Atac1 (Ada2a-containing complex component 1)	SID104182947		22493	26350
CG11999	SID104191977		50153	50900
CG34176	SID104180227		30450	31340
CG4575 (retired record)	SID104198164		37510	50050
Pfdn6 (Prefoldin 6)	SID104190707		79220	65173
ksh (kish)	SID104199346		2.93e5	2.96e5
CG13312	SID104189775		74447	83140
CG11570	SID104189636		94087	94387
CG18095	SID104181740		66263	72400
CG2901	SID104198031		42560	47450
CG14416	SID104198431		45100	53500
CG10209	SID104185772		56990	58287
nst (nesthocker)	SID104189547		46283	57297
Or35a (Odorant receptor 35a)	SID104183181		57477	77383
l(1)G0020 (lethal (1) G0020)	SID104197990		52600	58490
l(3)73Ah (lethal (3) 73Ah)	SID104191151		72910	55127
CG13917	SID104188178		53413	58687
CG2614	SID104182503		1.68e5	1.81e5
Mco1 (Multicopper oxidase 1)	SID104182512		42443	79977
CG6661	SID104190479		23243	30107
CG5013	SID104195487		71670	83210
CG14297	SID104194568		33880	20720
CG6012	SID104182713		52510	65820
CngB (Cyclic nucleotide-gated ion channel subunit B)	SID104184089		51557	49830
yellow-f2	SID104196164		58967	21377
Pp1-87B (Protein phosphatase 1 at 87B)	SID104196586		40950	20297
CG7506	SID104190652		47627	59823
Rop (Ras opposite)	SID104188485		37763	40820
Efa6 (Exchange factor for Arf 6)	SID104193361		1.98e5	1.97e5
Efa6 (Exchange factor for Arf 6)	SID104195104		29620	24250
Efa6 (Exchange factor for Arf 6)	SID104195933		55260	54480
Lac (Lachesin)	SID104187244		60457	54473
Mink (Mitotic spindle and nuclear protein)	SID104194083		38117	41880
CG9121	SID104182934		29110	35997
CG7335	SID104190608		60697	63253
Rrp46	SID104195329		68990	60997
atms (antimeros)	SID104192102		35800	40620
COX7AL (Cytochrome c oxidase subunit 7A-like)	SID104195105		73060	63143
RpS4 (Ribosomal protein S4)	SID104191064		61037	62840
CG12835 (retired record)	SID104185973		50733	89190
eIF3f1 (eukaryotic translation initiation factor 3 subunit f1)	SID104192120		64263	61220
Tmem63 (Transmembrane protein 63)	SID104185855		34120	62553
CR14117 (pseudo)	SID104189913		85707	74583
Ttc19 (Tetratricopeptide repeat domain 19)	SID104182266		55527	67083

4 consecutive records already listed, for reference:
target gene	PubChem SID	SD above plate mean	raw ATP luminescence, replicate 1	raw ATP luminescence, replicate 2
Efa6 (Exchange factor for Arf 6)	SID104195933		55260	54480
Lac (Lachesin)	SID104187244		60457	54473
Mink (Mitotic spindle and nuclear protein)	SID104194083		38117	41880
CG9121	SID104182934		29110	35997

Additional entries follow:
target gene	PubChem SID	SD above plate mean	raw ATP luminescence, replicate 1	raw ATP luminescence, replicate 2
CG11566 (retired record) + stg1	SID104200265		1.01e5	1.02e5
CG11566 (retired record) + stg1	SID104200273		2.23e5	2.27e5
CG11566 (retired record) + stg1	SID104200274		3.31e5	3.55e5
CG11566 (retired record) + stg1	SID104200275		3.28e5	3.15e5
Snx1 (Sorting nexin 1)	SID104180323		39113	43643
CG11231 (retired record)	SID104196999		52930	58470
Herp (Homocysteine-induced endoplasmic reticulum protein)	SID104182186		1.08e5	65750
Pcyt1 (Phosphocholine cytidylyltransferase 1)	SID104187949		62053	63230
mldr (mulder)	SID104197892		30640	43110
CG17065	SID104200336		2.46e5	2.63e5
kermit	SID104185866		68353	52963
CG12439	SID104181960		47077	68523
Ero1L (Endoplasmic reticulum oxidoreductin-1-like)	SID104188452		39590	35730
CG5521	SID104195620		57840	52530
CG40245 (retired record)	SID104200804		1.98e5	2.21e5
CG14671	SID104192049		68923	60860
Cp7Fc (Chorion protein c at 7F)	SID104197827		46870	40870
mmm (missing minor mitochondria)	SID104190000		80507	74580
pont (pontin)	SID104196821		45550	57330
CG3594	SID104184185		56833	38250
vimar (visceral mesodermal armadillo-repeats)	SID104184818		85447	58493
Neos (Neosin)	SID104191027		55970	41443
CR18275 (pseudo)	SID104197943		48310	55430
CG43894	SID104189915		89183	69597
CG31036	SID104194847		43060	34940
CG31036	SID104194849		68190	39270
CG4661	SID104199702		3.97e5	3.34e5
MstProx + Mst84Da	SID104192389		59153	63913
CG1208	SID104191982		63230	17897
Edg84A (Ecdysone-dependent gene 84A)	SID104192386		71510	60700
CG15040	SID104199408		1.61e5	2.04e5
CG4363	SID104184257		76333	65353
Jhbp6 (Juvenile hormone binding protein 6)	SID104191506		58220	47650
Alg9 (ALG9, alpha-1,2-mannosyltransferase)	SID104194199		46410	54077
Ing3 (Inhibitor of growth family, member 3)	SID104199794		2.14e5	2.32e5
Antdh (Antennal dehydrogenase)	SID104200099		3.54e5	3.54e5
Osi6 (Osiris 6)	SID104191920		61230	55780
UbcE2M (NEDD8-conjugating enzyme UbcE2M)	SID104190620	2 to 3 SD above plate mean (active)	60077	57703
Plp (Pericentrin-like protein)	SID104189798		65627	41487
Plp (Pericentrin-like protein)	SID104190125		60793	43247
Plp (Pericentrin-like protein)	SID104190492		27153	23717
Mtpalpha (Mitochondrial trifunctional protein alpha subunit)	SID104181786		80033	66403
CASK	SID104194380		65940	76720
CASK	SID104196389		53980	57720
CASK	SID104196390		53620	61420
CG10591	SID104189540		44303	41947
S-Lap2 (Sperm-Leucylaminopeptidase 2)	SID104190420		79763	71783
pigeon	SID104183357		83523	80557
CG13029	SID104189701		99020	57867
Cse1 (Chromosome segregation 1)	SID104183079		87187	64743
IPIP (Inositol phosphatase interacting protein)	SID104181956		1.22e5	64833
Sf3b6 (Splicing factor 3b subunit 6)	SID104189764		78480	79627
CG15729 (retired record)	SID104199487		3.01e5	2.70e5
Liprin-gamma	SID104183885		1.88e5	2.11e5
CG31191	SID104193247		2.11e5	2.41e5
CG31191	SID104195006		46640	68200
CG31191	SID104195007		20310	26590
CG14439	SID104197723		43720	42530
Gprk1 (G protein-coupled receptor kinase 1)	SID104200524		2.02e5	2.10e5
Gprk1 (G protein-coupled receptor kinase 1)	SID104200708		2.63e5	3.15e5
Jon99Ciii (Jonah 99Ciii)	SID104196651		34960	35950
Or98a (Odorant receptor 98a)	SID104196566		52680	37690
Bcat (Branched chain amino acid transaminase)	SID104199548		3.17e5	3.30e5
